Laboratory results reported in the supplement of paper PMC12873370.
“And” between values parts separate entries of the source, which are not always exact repeats. Equal entries are not always repeated. Some of the results follow. Repeats are few or missing, and single values can be far off.

test system: MEPP (mouse ovarian epithelium Trp53/Pten KO); assay: cell viability relative to untreated (fraction); higher = less growth inhibition; conditions: 5 µM; 3 days

Row | SMILES | cell viability
1 | CCCCOc1ccc(CC(=O)NO)cc1 | 1.03
2 | Cc1nc(N)sc1-c1ccnc(Nc2ccc(N3CCOCC3)cc2)n1 | 0.689
3 | COc1ccccc1C(=O)Nc1cc2c(cc1N1CCCC1)n(C)c(=O)n2C | 0.928
4 | N=C1NC(=O)/C(=C/c2ccc(O)cc2)S1 | 1.02
5 | C/C(=N\NC(=O)c1cccc(S(=O)(=O)N2CCOCC2)c1)c1cc(Cl)ccc1O | 0.55
6 | O=S(=O)(c1cccc2cnccc12)N1CCCNCC1 | 0.884
7 | C=CC(=O)c1ccc2ccccc2c1 | 0.843
8 | Cc1cn(CCN2CCN(c3ccccc3-c3cc(C#N)cc(C(=O)NCCCN4CCCC4)c3)CC2)c2ccccc12 | 1.02
9 | O=C(C=Cc1ccccc1)NC(NC(=S)Nc1ccc(Cl)cc1)C(Cl)(Cl)Cl (centres undefined) | 0.821
10 | Cc1cc(-c2nc(-c3ccc(OC(F)(F)F)cc3)no2)nn1Cc1ccnc(N2CCN(C3CC3)CC2)c1 | 1.04
11 | c1cc(-c2cnn3cc(-c4ccc(OCCN5CCCCC5)cc4)cnc23)ccn1 | 0.499 and 0.903
12 | Cc1ccc(NC(=O)CCCCCC(=O)Nc2ccccc2N)cc1 | 1.01
13 | CC(C)C(=O)SCCCCCCC(=O)Nc1nc(-c2ccccc2)cs1 | 0.754
14 | O=C(/C=C/c1ccc(CN(CCO)CCc2c[nH]c3ccccc23)cc1)NO | 0.504
15 | Nc1ccc(S(=O)(=O)NCCc2ccccc2)cc1 | 0.936
16 | Nc1cc(F)ccc1NC(=O)/C=C/c1cnn(C/C=C/c2ccccc2)c1 | 1.15
17 | Cc1cc(C)c(CNC(=O)c2cc(-c3ccc(N4CCN(C)CC4)nc3)cc3c2c(C)cn3C(C)C)c(=O)[nH]1 | 0.934
18 | CCS(=O)(=O)N1CCC([C@@H](C)n2c(C)c(C(=O)NCc3c(OC)cc(C)[nH]c3=O)c3ccccc32)CC1 | 0.979
19 | Nc1ccn([C@@H]2O[C@H](CO)[C@@H](O)C2(F)F)c(=O)n1 | 0.113
20 | O=C(O)c1ccccc1Nc1cccc(C(F)(F)F)c1 | 0.921

Row | SMILES | cell viability
21 | O=C(O)CNC(=O)c1nc(Cl)c2ccccc2c1O | 1
22 | O=C(CCCCCCC(=O)Nc1ccc(I)cc1)NO | 0.475
23 | N#Cc1c(-c2ccccc2)cc(-c2cc(Br)ccc2O)[nH]c1=O | 0.771
24 | CC(C)(CCCCCC(O)CCCCCC(C)(C)C(=O)O)C(=O)O | 0.956
25 | CCCOc1ccn2c(C(C)=O)cc(-c3ccccc3S(C)(=O)=O)c2c1 | 1.14
26 | O=C(CCCCCCC(=O)Nc1ccc([C@H]2O[C@@H](CSc3nc(-c4ccccc4)c(-c4ccccc4)o3)C[C@@H](c3ccc(CO)cc3)O2)cc1)NO | 0.84
27 | Nc1cc(F)ccc1NC(=O)c1ccc(CNC(=O)/C=C/c2cccnc2)cc1 | 0.967
28 | O=C1NC(=O)/C(=C/c2cccc(C(F)(F)F)c2)S1 | 0.78
29 | O=C(c1cncc(Br)c1)N1CCC(N2CCCC2)CC1 | 1.02
30 | O=C(NCc1ccncc1)C12CC3CC(C1)CC(c1ccc(Cl)cc1)(C3)C2 | 0.934
31 | O=C(CCCCCCNC(=O)c1cnc(N(c2ccccc2)c2ccccc2Cl)nc1)NO | 0.835
32 | O=P(O)(O)OC(CO)CO | 1.1
33 | Cc1cc(Nc2cc(CN3CCOCC3)c3nc(C)c(Cc4ccc(Cl)cc4F)n3n2)n[nH]1 | 0.821
34 | CCC(C)SSc1ncc[nH]1 (centres undefined) | 0.585
35 | O=C(NCC(=O)N1CCCC1)Nc1ccc2cnccc2c1 | 1.15
36 | O=c1ncccn1[C@@H]1O[C@H](CO)[C@@H](O)[C@H]1O | 0.938
37 | Nc1ccccc1NC(=O)c1ccc(CNc2nccc(-c3cccnc3)n2)cc1 | 0.707
38 | Cn1ncnc1[C@@H]1c2n[nH]c(=O)c3cc(F)cc(c23)N[C@H]1c1ccc(F)cc1 | 1.16
39 | COc1cccc2c1c(O)c(C(=O)N(C)c1ccc(C(F)(F)F)cc1)c(=O)n2C | 0.98

Numbers 24 to 26, reprinted for reference:
Row | SMILES | cell viability
24 | CC(C)(CCCCCC(O)CCCCCC(C)(C)C(=O)O)C(=O)O | 0.956
25 | CCCOc1ccn2c(C(C)=O)cc(-c3ccccc3S(C)(=O)=O)c2c1 | 1.14
26 | O=C(CCCCCCC(=O)Nc1ccc([C@H]2O[C@@H](CSc3nc(-c4ccccc4)c(-c4ccccc4)o3)C[C@@H](c3ccc(CO)cc3)O2)cc1)NO | 0.84
